PubChem BioAssay AID1159578 | Peter MacCallum Cancer Centre, 2015

Purpose: 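siRNA pools altering how lymphatic endothelial cells close a scratch wound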 (primary screen)
System: human lymphatic endothelial cells
Knock-down reagent: siRNA pool against human genes, 40 nM
Timing: 48 h after transfection
Measured: 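High-content imaging of dye-stained cells in a scratch assay measures filled wound area and nuclei per well; duplicate means given as ratio to mock and robust z-score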
Direction: migration robust z-score: higher = faster migration into the scratch; migration relative to mock: higher = more scratch area covered than mock; nuclei per well: higher = more cells in the well
Rule for the call: 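Pools averaging fewer than 3300 nuclei are never called; remaining pools count as changed when migration robust z lies outside -2 to 2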
Meaning of the calls: active = migration changed; inactive = no migration change, or too few cells
Here is a random part of about 18,000 deposited reagents. Of all reagents, about 1,030 (5.7%) were called active. 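Inactive calls also include pools with fewer than 3300 nuclei, whose migration was not assessed.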 The raw values are shown without normalisation.

Gene	migration robust z-score	migration class with cell-count check	migration relative to mock	nuclei per well, duplicate mean	outcome
CEP20	0.49	migration z between -2 and 2; enough cells	1.02	6652	inactive
C1QL2	0.58	migration z between -2 and 2; enough cells	1.04	5107	inactive
BLVRA	0.75	migration z between -2 and 2; enough cells	0.95	6498	inactive
OR9G4	2.07	migration z above 2; enough cells	1.43	6748	active
ULBP1	0.76	migration z between -2 and 2; enough cells	1.08	5388	inactive
ROGDI	1.89	migration z between -2 and 2; enough cells	1.38	5700	inactive
VARS2	1.4	migration z between -2 and 2; enough cells	1.25	7727	inactive
HLA-B	-0.47	migration z between -2 and 2; enough cells	0.72	3976	inactive
ZNF322	0.02	migration z between -2 and 2; enough cells	0.89	4567	inactive
KMT5B	-0.56	migration z between -2 and 2; enough cells	0.74	6428	inactive
IL1R1	-0.31	migration z between -2 and 2; enough cells	0.74	5398	inactive
PROKR2	0.06	migration z between -2 and 2; enough cells	0.82	6805	inactive
VEZF1	0.52	migration z between -2 and 2; enough cells	0.9	5870	inactive
MRPL20	-0.15	migration z between -2 and 2; enough cells	0.85	5764	inactive
MESP2	-2.75	migration z below -2; enough cells	0.17	3714	active
CYP4V2	-0.85	migration z between -2 and 2; enough cells	0.67	5569	inactive
ZMYM1	0.23	migration z between -2 and 2; enough cells	0.94	6274	inactive
AMMECR1	0.23	migration z between -2 and 2; enough cells	0.95	5550	inactive
CLECL1	0.95	migration z between -2 and 2; enough cells	1.14	5918	inactive
SUN2	0.18	migration z between -2 and 2; enough cells	0.93	5659	inactive
DENND4C	-0.28	migration z between -2 and 2; enough cells	0.81	6600	inactive
RALY	1.66	migration z between -2 and 2; enough cells	1.31	5781	inactive
PARD3B	-0.43	migration z between -2 and 2; enough cells	0.77	6322	inactive

In a second layout: results already given
Gene | migration robust z-score | migration class with cell-count check | migration relative to mock | nuclei per well, duplicate mean | outcome
KMT5B | -0.56 | migration z between -2 and 2; enough cells | 0.74 | 6428 | inactive
IL1R1 | -0.31 | migration z between -2 and 2; enough cells | 0.74 | 5398 | inactive
